PubChem BioAssay AID1259405 | NCATS, 2018
Purpose: 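Silenced genes that increase secreted GFP made by CHO cells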 (primary screen). Cell system: Chinese hamster CHO-K1 ovary cells with stable secreted eGFP expression. Reagents: single siRNA against mouse genes, 0.8 pmol siRNA per well (2 µl of 400 nM stock). Time to read-out: 3 days. Measurement: 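Per-well intracellular GFP measured by laser scanning cytometry, plus viability from ATP luminescence, each relative to plate median of non-targeting control wells, in %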. Reading the numbers: GFP, % of control: higher = more GFP per well, higher productivity; viability (ATP), % of control: higher = more viable cells (more ATP). Call rule: 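a knock-down is called active if GFP reaches 120% or more of non-targeting control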.
Here is one part, drawn at random, of about 50,000 reagents. Of all reagents, about 4,000 (8%) are marked active. 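Mouse siRNA library applied to hamster cells; one well for each siRNA.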 The numbers tell different reagents against one gene apart. No sequences are given here.

The first 12 entries, ahead of the listing:
no.	gene symbol	reagent	GFP, % of control	viability (ATP), % of control	Call
1	Mvk (GeneID 17855)	1	102	87	inactive
2	S100a7a (GeneID 381493)	1	80.3	71.3	inactive
3	S100a7a (GeneID 381493)	2	98.1	76.9	inactive
4	S100a7a (GeneID 381493)	3	73	58.5	inactive
5	Tmem107 (GeneID 66910)	1	80.9	68.5	inactive
6	Tmem107 (GeneID 66910)	2	209	69	active
7	Tmem107 (GeneID 66910)	3	85.4	80.3	inactive
8	Tmem107 (GeneID 66910)	4	57.4	80.9	inactive
9	Tmem107 (GeneID 66910)	5	70.2	100	inactive
10	Tmem107 (GeneID 66910)	6	84.9	114	inactive
11	Rbbp4 (GeneID 19646)	1	96.4	83.9	inactive
12	Rbbp4 (GeneID 19646)	2	86.9	69.6	inactive

Results, repeating the preview:
no.	gene symbol	reagent	GFP, % of control	viability (ATP), % of control	Call
1	Mvk (GeneID 17855)	1	102	87	inactive
2	S100a7a (GeneID 381493)	1	80.3	71.3	inactive
3	S100a7a (GeneID 381493)	2	98.1	76.9	inactive
4	S100a7a (GeneID 381493)	3	73	58.5	inactive
5	Tmem107 (GeneID 66910)	1	80.9	68.5	inactive
6	Tmem107 (GeneID 66910)	2	209	69	active
7	Tmem107 (GeneID 66910)	3	85.4	80.3	inactive
8	Tmem107 (GeneID 66910)	4	57.4	80.9	inactive
9	Tmem107 (GeneID 66910)	5	70.2	100	inactive
10	Tmem107 (GeneID 66910)	6	84.9	114	inactive
11	Rbbp4 (GeneID 19646)	1	96.4	83.9	inactive
12	Rbbp4 (GeneID 19646)	2	86.9	69.6	inactive
13	Rbbp4 (GeneID 19646)	3	111	86.9	inactive
14	Spmip10 (GeneID 67343)	1	88.9	96.9	inactive
15	Spmip10 (GeneID 67343)	2	55.9	65	inactive
16	Spmip10 (GeneID 67343)	3	89.1	73.8	inactive
17	Or8b42 (GeneID 258028)	1	89.7	74.7	inactive
18	Or8b42 (GeneID 258028)	2	73.3	39.4	inactive
19	Or8b42 (GeneID 258028)	3	79.5	111	inactive
20	Trpc3 (GeneID 22065)	1	78	91.8	inactive
21	Trpc3 (GeneID 22065)	2	132	97.8	active
22	Trpc3 (GeneID 22065)	3	104	113	inactive
23	Sprr2k (GeneID 20765)	1	129	112	active
24	Sprr2k (GeneID 20765)	2	94.9	85.7	inactive
25	Cox4i1 (GeneID 12857)	1	79.3	86.9	inactive
26	Cox4i1 (GeneID 12857)	2	36.6	32.2	inactive
27	Cox4i1 (GeneID 12857)	3	88.1	73.6	inactive
28	A730045E13Rik (GeneID 208924)	1	79.5	82.2	inactive
29	A730045E13Rik (GeneID 208924)	2	50.2	36.8	inactive
30	A730045E13Rik (GeneID 208924)	3	65.4	84.2	inactive
31	Pola2 (GeneID 18969)	1	118	124	inactive
32	Pola2 (GeneID 18969)	2	82.1	87.2	inactive
33	Fxr2 (GeneID 23879)	1	98	79.8	inactive
34	Fxr2 (GeneID 23879)	2	74.8	50.6	inactive
35	Fxr2 (GeneID 23879)	3	82.7	78.5	inactive
36	Cabp7 (GeneID 192650)	1	69.2	93.5	inactive
37	Cabp7 (GeneID 192650)	2	86.7	83.1	inactive
38	Plekhb2 (GeneID 226971)	1	59.9	72.9	inactive
39	Plekhb2 (GeneID 226971)	2	54.3	63.7	inactive
40	Plekhb2 (GeneID 226971)	3	84.7	79.6	inactive
41	Epha3 (GeneID 13837)	1	16.5	25.9	inactive
42	Zhx1 (GeneID 22770)	1	64.6	64.9	inactive
43	Zhx1 (GeneID 22770)	2	82.8	83.3	inactive
44	Zhx1 (GeneID 22770)	3	105	88.7	inactive
45	Rcsd1 (GeneID 226594)	1	110	100	inactive
46	Rcsd1 (GeneID 226594)	2	53	69.5	inactive
47	Rcsd1 (GeneID 226594)	3	27.3	59	inactive
48	H1f2 (GeneID 50708)	1	88.6	107	inactive
49	H1f2 (GeneID 50708)	2	89.9	122	inactive
50	H1f2 (GeneID 50708)	3	64.1	77.7	inactive
51	Tas2r144 (GeneID 387515)	1	75.9	69.8	inactive
52	Tas2r144 (GeneID 387515)	2	50.8	55.1	inactive
53	Tas2r144 (GeneID 387515)	3	69.3	63.4	inactive
54	Wdr83os (GeneID 414077)	1	71.1	78.4	inactive
55	Wdr83os (GeneID 414077)	2	71.3	91.3	inactive
56	Wdr83os (GeneID 414077)	3	88.1	109	inactive
57	Birc5 (GeneID 11799)	1	51	35.9	inactive
58	Birc5 (GeneID 11799)	2	75.5	71.4	inactive
59	Birc5 (GeneID 11799)	3	114	70.3	inactive
60	Or6b6 (GeneID 259037)	1	165	79.2	active
61	Or6b6 (GeneID 259037)	2	80.3	89.5	inactive
62	Or6b6 (GeneID 259037)	3	58.9	72.5	inactive
63	Kif11 (GeneID 16551)	1	60.8	36.1	inactive
64	Kif11 (GeneID 16551)	2	61.2	80.4	inactive
65	Impg2 (GeneID 224224)	1	68.2	71.9	inactive
66	Impg2 (GeneID 224224)	2	99.1	104	inactive
67	Impg2 (GeneID 224224)	3	69.9	65.8	inactive
68	Ceacam11 (GeneID 66996)	1	127	111	active
69	Ceacam11 (GeneID 66996)	2	61.8	72.1	inactive
70	Ceacam11 (GeneID 66996)	3	72.7	89.8	inactive
71	Gtse1 (GeneID 29870)	1	92.8	93.7	inactive
72	Gtse1 (GeneID 29870)	2	81.6	77.7	inactive
73	Gtse1 (GeneID 29870)	3	54.3	54	inactive
74	Klrg1 (GeneID 50928)	1	90.9	115	inactive
75	Klrg1 (GeneID 50928)	2	105	84.1	inactive
76	Kdm4a (GeneID 230674)	1	0.524	143	inactive
77	Kdm4a (GeneID 230674)	2	75.1	84.6	inactive
78	Kdm4a (GeneID 230674)	3	106	84.8	inactive
79	Smcr8 (GeneID 237782)	1	75.9	65.4	inactive
80	Smcr8 (GeneID 237782)	2	92.4	78.3	inactive
81	Smcr8 (GeneID 237782)	3	70.3	54.5	inactive
82	St6galnac2 (GeneID 20446)	1	42.7	63.6	inactive
83	St6galnac2 (GeneID 20446)	2	124	82.7	active
84	St6galnac2 (GeneID 20446)	3	83.9	91.4	inactive
85	Or2ag1 (GeneID 259034)	1	93.9	48.7	inactive
86	Or2ag1 (GeneID 259034)	2	80.8	64.3	inactive
87	Or2ag1 (GeneID 259034)	3	66.8	46	inactive
88	Sra1 (GeneID 24068)	1	27.6	22.6	inactive
89	Sra1 (GeneID 24068)	2	119	96.3	inactive
90	Sra1 (GeneID 24068)	3	70.3	85.2	inactive
91	Tbc1d16 (GeneID 207592)	1	97.2	80.3	inactive
92	Tbc1d16 (GeneID 207592)	2	115	104	inactive
93	Tbc1d16 (GeneID 207592)	3	36.7	30.1	inactive
94	Or52z13 (GeneID 259049)	1	82.5	74.5	inactive
95	Or52z13 (GeneID 259049)	2	83	63.8	inactive
96	Or52z13 (GeneID 259049)	3	43.5	85.3	inactive
97	Shf (GeneID 435684)	1	60.4	56.3	inactive
98	Shf (GeneID 435684)	2	44.7	9.35	inactive
99	Shf (GeneID 435684)	3	31.8	34.1	inactive
100	Asic1 (GeneID 11419)	1	116	52.9	inactive
101	Asic1 (GeneID 11419)	2	66.7	79.9	inactive
102	Asic1 (GeneID 11419)	3	78.4	74.6	inactive
103	Or5p62 (GeneID 258489)	1	131	69.6	active
104	Or5p62 (GeneID 258489)	2	81.6	74	inactive
105	Or5p62 (GeneID 258489)	3	72.4	68.1	inactive
106	Jade2 (GeneID 76901)	1	110	121	inactive
107	Jade2 (GeneID 76901)	2	74.7	75.9	inactive
108	Jade2 (GeneID 76901)	3	60	94.2	inactive
